These are yes or no findings as the source states them, for the method shown. In cells and extracts the contact can be indirect. Some results given as binding are weak or reduced against the parent protein; the word gives no strength.
Target: FimA of E. coli K12 W3110 in type 1 pili assembled in vivo (for stability studies) (E. coli K12 W3110) (UniProt P04128)
Test: co-sedimentation; pili assembled in vivo in W3110ΔfimA with pCG1-AC; released at 90°C, precipitated with 0.1 M MgCl2, washed with 1% SDS, pelleted at 186'000 x g; dissociation/unfolding by GdmCl at pH 2.1 followed by far-UV CD

B1: Mature FimA without its natural signal sequence (159 residues), refolded FimA monomer (natural protein)
chain: AATTVNGGTVHFKGEVVNAACAVDAGSVDQTVQLGQVRTASLAQEGATSSAVGFNIQLNDCDTNVASKAAVAFLGTAIDAGHTNVLALQSSAAGSATNVGVQILDRTGAALTLDGATFSSETTLNNGTNTIPFQARYFATGAATPGAANADATFKVQYQ
notes: the N-terminal methionine added for cytoplasmic expression was cleaved off quantitatively (measured 15826.0 Da). numbers count on: the mature protein; also called pili assembled in vitro
B1 was tested, and the binding was “binds”.

Reference: PMC5719983, “The Cryoelectron Microscopy Structure of the Type 1 Chaperone-Usher Pilus Rod” (Structure(London, England:1993), 2017)
